According to paper PMC6150996:
No constants are given. Whether binding was seen depends on the method and setting. For some assays here: Binding seen in cells or lysates may run through a third protein. Some entries that bind do so weakly or less than the wild type. For some assays here: Tags and fused reporters may be left off the sequences shown.

Chains of the proteins cited; added tags and fusions are not shown.
UniProt P04608: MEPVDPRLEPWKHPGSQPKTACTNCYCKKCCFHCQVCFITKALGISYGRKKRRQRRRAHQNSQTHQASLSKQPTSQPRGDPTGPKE

Tests used:
[1] = biological target: T1, endogenous RelB (human (endogenous in HeLa)) (UniProt Q01201); assay: co-IP; lysates of HA-Tat-expressing HeLa cells, in the presence or absence of RNase A (5 μg/ml); IP with rabbit anti-RelB antibodies or control rabbit IgG; western blot
T1 sequence: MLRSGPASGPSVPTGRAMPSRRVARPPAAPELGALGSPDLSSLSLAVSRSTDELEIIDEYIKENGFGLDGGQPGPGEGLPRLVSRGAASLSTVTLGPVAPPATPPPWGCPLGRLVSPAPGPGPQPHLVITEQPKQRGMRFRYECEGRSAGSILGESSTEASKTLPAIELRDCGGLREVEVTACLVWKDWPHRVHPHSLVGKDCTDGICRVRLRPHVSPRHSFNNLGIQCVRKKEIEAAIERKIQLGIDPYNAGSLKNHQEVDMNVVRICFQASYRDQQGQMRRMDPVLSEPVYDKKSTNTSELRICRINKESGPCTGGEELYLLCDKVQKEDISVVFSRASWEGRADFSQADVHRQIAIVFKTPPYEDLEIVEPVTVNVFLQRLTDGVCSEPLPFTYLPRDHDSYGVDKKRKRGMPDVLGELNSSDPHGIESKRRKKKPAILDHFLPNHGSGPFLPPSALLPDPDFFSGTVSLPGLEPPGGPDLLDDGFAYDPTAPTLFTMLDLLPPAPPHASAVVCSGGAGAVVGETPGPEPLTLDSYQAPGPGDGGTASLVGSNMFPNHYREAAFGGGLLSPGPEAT

[2] = biological target: HIV-1 Tat (bait in the yeast two-hybrid screen) (HIV-1) (UniProt P04608); assay: two-hybrid; yeast two-hybrid screen; HIV-1 Tat as bait, human universal cDNA library as prey; 1 x 10^7 cDNA clones screened
EGFP-Tat (HIV-1) = EGFP-Tat (HIV-1) (UniProt P04608); assay: co-IP; HEK 293T co-transfected with pFlag-RelB and EGFP-Tat (wild type or deletion mutants of either); IP with anti-EGFP (Tat) or anti-Flag (RelB); western blot
Myc-Tat (HIV-1) = Myc-Tat (HIV-1) (UniProt P04608); assay: co-IP; HEK 293T co-transfected with Myc-Tat and pFlag-RelB; IP with anti-Flag or anti-Myc antibodies; 50 mM Tris pH 7.4, 150 mM NaCl, 2 mM EDTA, 3% glycerol, 1% Triton-X-100; 4 °C; western blot
HA-Tat (HIV-1) = HA-Tat (HIV-1) (UniProt P04608); assay: co-IP; lysate of HA-Tat-expressing HeLa cells; IP with mouse anti-HA antibodies; endogenous RelB detected by western blot

For HA-Tat (from UniProt P04608 1-86), the binding [1] was “binds”.

For “RelB fragment 236-452 aa (clone from the yeast two-hybrid library) (from UniProt Q01201 236-452) (domain or fragment)”, the binding [2] was “binds”.

B1: Flag-RelB (protein, UniProt Q01201 1-579)
chain: MLRSGPASGPSVPTGRAMPSRRVARPPAAPELGALGSPDLSSLSLAVSRSTDELEIIDEYIKENGFGLDGGQPGPGEGLPRLVSRGAASLSTVTLGPVAPPATPPPWGCPLGRLVSPAPGPGPQPHLVITEQPKQRGMRFRYECEGRSAGSILGESSTEASKTLPAIELRDCGGLREVEVTACLVWKDWPHRVHPHSLVGKDCTDGICRVRLRPHVSPRHSFNNLGIQCVRKKEIEAAIERKIQLGIDPYNAGSLKNHQEVDMNVVRICFQASYRDQQGQMRRMDPVLSEPVYDKKSTNTSELRICRINKESGPCTGGEELYLLCDKVQKEDISVVFSRASWEGRADFSQADVHRQIAIVFKTPPYEDLEIVEPVTVNVFLQRLTDGVCSEPLPFTYLPRDHDSYGVDKKRKRGMPDVLGELNSSDPHGIESKRRKKKPAILDHFLPNHGSGPFLPPSALLPDPDFFSGTVSLPGLEPPGGPDLLDDGFAYDPTAPTLFTMLDLLPPAPPHASAVVCSGGAGAVVGETPGPEPLTLDSYQAPGPGDGGTASLVGSNMFPNHYREAAFGGGLLSPGPEAT
For B1, the binding (EGFP-Tat (HIV-1)) was “binds” and the binding (Myc-Tat (HIV-1)) was “binds”.

B2: endogenous RelB (protein, UniProt Q01201 1-579)
chain: MLRSGPASGPSVPTGRAMPSRRVARPPAAPELGALGSPDLSSLSLAVSRSTDELEIIDEYIKENGFGLDGGQPGPGEGLPRLVSRGAASLSTVTLGPVAPPATPPPWGCPLGRLVSPAPGPGPQPHLVITEQPKQRGMRFRYECEGRSAGSILGESSTEASKTLPAIELRDCGGLREVEVTACLVWKDWPHRVHPHSLVGKDCTDGICRVRLRPHVSPRHSFNNLGIQCVRKKEIEAAIERKIQLGIDPYNAGSLKNHQEVDMNVVRICFQASYRDQQGQMRRMDPVLSEPVYDKKSTNTSELRICRINKESGPCTGGEELYLLCDKVQKEDISVVFSRASWEGRADFSQADVHRQIAIVFKTPPYEDLEIVEPVTVNVFLQRLTDGVCSEPLPFTYLPRDHDSYGVDKKRKRGMPDVLGELNSSDPHGIESKRRKKKPAILDHFLPNHGSGPFLPPSALLPDPDFFSGTVSLPGLEPPGGPDLLDDGFAYDPTAPTLFTMLDLLPPAPPHASAVVCSGGAGAVVGETPGPEPLTLDSYQAPGPGDGGTASLVGSNMFPNHYREAAFGGGLLSPGPEAT
For B2, the binding (HA-Tat (HIV-1)) was “binds”.
